Substitutions are numbered along the chain they refer to. Numbers in names are those of the source. These are yes or no findings as the source states them, for the method shown. For part of these data: Binding seen in cells or lysates may run through a third protein. Some binding calls cover weakened binding; strength is not graded here. Tags and fused reporters may be left off the sequences shown.
What was measured:
[1] = target: T1, CA-RABG3a (Q67L), yeast two-hybrid fusion (Arabidopsis thaliana) (UniProt Q948K8); test: two-hybrid
T1 sequence: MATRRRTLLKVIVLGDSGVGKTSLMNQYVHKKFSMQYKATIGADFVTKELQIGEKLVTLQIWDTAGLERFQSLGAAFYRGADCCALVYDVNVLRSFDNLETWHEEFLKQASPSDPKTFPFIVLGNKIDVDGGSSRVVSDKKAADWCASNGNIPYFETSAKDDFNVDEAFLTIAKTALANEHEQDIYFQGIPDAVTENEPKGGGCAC

Amino acid sequences for entries named in this document (tags omitted). A change or cut given only in a name is not applied to a line headed by its entry.
UniProt Q9LS94: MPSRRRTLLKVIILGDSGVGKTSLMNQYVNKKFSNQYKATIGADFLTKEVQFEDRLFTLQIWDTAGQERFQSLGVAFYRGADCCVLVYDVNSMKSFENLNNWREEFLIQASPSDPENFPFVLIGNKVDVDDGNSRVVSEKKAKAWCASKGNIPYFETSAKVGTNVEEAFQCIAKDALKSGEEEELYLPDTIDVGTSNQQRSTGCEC
UniProt P28188: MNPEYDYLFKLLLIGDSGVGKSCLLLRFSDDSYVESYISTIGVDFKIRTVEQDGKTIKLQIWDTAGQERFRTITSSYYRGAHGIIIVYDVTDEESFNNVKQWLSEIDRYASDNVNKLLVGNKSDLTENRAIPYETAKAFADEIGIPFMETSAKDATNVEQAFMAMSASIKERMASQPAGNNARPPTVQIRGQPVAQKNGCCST

[2] = target: CA-RABG3f (Q67L), yeast two-hybrid fusion (Arabidopsis thaliana) (UniProt Q9LS94); test: two-hybrid
[3] = target: T2, DN-RABG3a (T22N), yeast two-hybrid fusion (Arabidopsis thaliana) (UniProt Q948K8); test: two-hybrid
T2 sequence: T1 sequence with T22N, L67Q

[4] = target: DN-RABG3f (T22N), yeast two-hybrid fusion (Arabidopsis thaliana) (UniProt Q9LS94); test: two-hybrid
[5] = target: T3, NET4B, full length, yeast two-hybrid fusion (Arabidopsis thaliana) (UniProt Q84VY2); test: two-hybrid
T3 sequence: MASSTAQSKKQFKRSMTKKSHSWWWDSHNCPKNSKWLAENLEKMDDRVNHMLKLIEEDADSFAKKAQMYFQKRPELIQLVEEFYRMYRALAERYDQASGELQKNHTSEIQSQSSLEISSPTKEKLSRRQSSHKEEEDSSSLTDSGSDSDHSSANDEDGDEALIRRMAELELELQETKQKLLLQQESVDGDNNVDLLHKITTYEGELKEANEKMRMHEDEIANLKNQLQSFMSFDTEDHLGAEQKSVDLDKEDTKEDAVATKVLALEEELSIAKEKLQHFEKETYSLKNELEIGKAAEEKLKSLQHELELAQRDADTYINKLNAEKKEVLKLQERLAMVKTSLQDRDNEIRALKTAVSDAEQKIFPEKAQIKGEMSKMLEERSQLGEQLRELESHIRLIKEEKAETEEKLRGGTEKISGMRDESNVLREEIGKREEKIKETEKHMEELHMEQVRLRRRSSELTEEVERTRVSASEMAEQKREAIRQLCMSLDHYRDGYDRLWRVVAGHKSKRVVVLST

[6] = target: T4, RABA5c, yeast two-hybrid bait (Arabidopsis thaliana) (UniProt P28187); test: two-hybrid
T4 sequence: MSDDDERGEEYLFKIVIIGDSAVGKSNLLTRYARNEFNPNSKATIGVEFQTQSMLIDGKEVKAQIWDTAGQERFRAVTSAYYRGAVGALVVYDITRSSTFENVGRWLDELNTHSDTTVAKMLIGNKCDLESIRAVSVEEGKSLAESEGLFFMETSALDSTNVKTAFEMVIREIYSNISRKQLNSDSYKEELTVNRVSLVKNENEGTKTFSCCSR

[7] = target: RABD2a, yeast two-hybrid bait (Arabidopsis thaliana) (UniProt P28188); test: two-hybrid
[8] = target: T5, RABF2a, yeast two-hybrid bait (Arabidopsis thaliana) (UniProt P31582); test: two-hybrid
T5 sequence: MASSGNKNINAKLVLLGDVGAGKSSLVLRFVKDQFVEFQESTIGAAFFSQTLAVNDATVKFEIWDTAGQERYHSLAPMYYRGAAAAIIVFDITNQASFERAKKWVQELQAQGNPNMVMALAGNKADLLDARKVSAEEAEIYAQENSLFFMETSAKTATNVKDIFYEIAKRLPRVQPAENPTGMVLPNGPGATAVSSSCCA

[9] = target: T6, RABG3a wild type, yeast two-hybrid fusion (Arabidopsis thaliana) (UniProt Q948K8); test: two-hybrid
T6 sequence: T1 sequence with L67Q

[10] = target: RABG3f wild type, yeast two-hybrid fusion (Arabidopsis thaliana) (UniProt Q9LS94); test: two-hybrid
[11] = target: NET4A, full length, yeast two-hybrid fusion (Arabidopsis thaliana) (UniProt F4KEW8); test: two-hybrid
[12] = target: T7, NET4B residues 464-511 (RABG3 binding domain), yeast two-hybrid bait (Arabidopsis thaliana) (UniProt Q84VY2); test: two-hybrid
T7 sequence: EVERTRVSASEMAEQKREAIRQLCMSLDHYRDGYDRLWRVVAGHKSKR

[13] = target: T8, NET4A-GFP (Arabidopsis thaliana) (UniProt F4KEW8); test: FRET or BRET
T8 sequence: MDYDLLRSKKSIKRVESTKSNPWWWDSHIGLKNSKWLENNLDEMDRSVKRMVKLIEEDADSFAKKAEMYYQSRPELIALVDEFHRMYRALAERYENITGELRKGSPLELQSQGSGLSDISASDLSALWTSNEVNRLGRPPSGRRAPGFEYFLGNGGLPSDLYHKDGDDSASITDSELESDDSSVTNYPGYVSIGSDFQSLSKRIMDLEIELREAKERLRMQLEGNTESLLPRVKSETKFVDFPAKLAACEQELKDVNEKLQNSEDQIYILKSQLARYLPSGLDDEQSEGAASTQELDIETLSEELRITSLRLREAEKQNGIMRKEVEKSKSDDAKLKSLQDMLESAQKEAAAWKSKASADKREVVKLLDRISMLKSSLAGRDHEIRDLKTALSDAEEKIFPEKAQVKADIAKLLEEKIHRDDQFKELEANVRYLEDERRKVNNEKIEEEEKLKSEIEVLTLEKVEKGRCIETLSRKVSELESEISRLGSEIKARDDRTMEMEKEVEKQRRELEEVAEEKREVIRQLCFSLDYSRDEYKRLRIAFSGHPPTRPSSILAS

[14] = target: T8, NET4A-GFP (Arabidopsis thaliana); test: co-IP

B1: NET4B, full length, yeast two-hybrid fusion (protein, UniProt Q84VY2 1-517)
chain: T3 sequence
What does the source list for B1?
binding [1]: binds; binding [2]: binds; binding [3]: no binding; binding [4]: no binding; binding [5]: binds; binding [6]: no binding; binding [7]: no binding; binding [8]: no binding; binding [9]: binds; binding [10]: binds

B2: NET4A, full length, yeast two-hybrid fusion (protein, UniProt F4KEW8 1-558)
chain: T8 sequence
With B2 as the binder, how does the binding [1] read?
Its binding is “binds”.

And the binding [2]?
The binding was “binds”.

What about the binding [3] of the same binder?
Its binding is “no binding”.

And the binding [4]?
Its binding is “no binding”.

And the binding [11]?
Its binding is “binds”.

What about the binding [5] of the same binder?
The binding was “binds”.

And the binding [6]?
Its binding is “no binding”.

What about the binding [7] of the same binder?
Its binding is “no binding”.

And the binding [8]?
Its binding is “no binding”.

And the binding [9]?
Its binding is “binds”.

And the binding [10]?
The binding was “binds”.

B3: CA-RABG3a (Q67L), yeast two-hybrid fusion (protein, UniProt Q948K8 1-206)
chain: T1 sequence
With B3 as the binder, how does the binding [12] read?
The binding was “binds”.

B4: NET4B-RFP (protein, UniProt Q84VY2 1-517)
chain: T3 sequence
For B4, which binding [13] is on record?
The binding was “binds”.

And the binding [14]?
Its binding is “binds”.
